Measured values as given in US20080280862A1, “Methods, compositions, and kits for the treatment of pain” (priority 2007, published 2008).

Test system: acetic acid-induced pain model in mice
Assay: Acetic acid pain model, writhes
Type: in vivo, ICR mice
Details: 5 mg/kg ip
Protocol: The acetic acid is a reliable fast model for noxious/visceral pain usually used for screening potential drug candidates for their analgesic activity. The effects of test article combinations on pain generation are assayed using the acetic acid-induced pain model in mice. Adult male ICR mice are administered study drugs intraperitoneally (vehicle, TCA, steroid or TCA/Steroid test article combinations) once daily for 2 days (day −2 and day −1) and 30 minutes prior to the acetic acid injection on day 0 (time=0). […] To elicit a pain response, dilute acetic acid (10 ml/kg of 0.6% solution) is injected intraperitoneally into the abdomen. The animal is placed in an observation chamber, and 5 minutes after acetic acid administration, the number of writhes is counted and recorded over a five minute period by a blinded observer. A writhe is considered as a contraction of the abdominal muscles accompanied by an elongation of the body and extension of the hind limb. Results are expressed as number of writhes.

## CN1CC[C@]23c4c5ccc(O)c4O[C@H]2[C@@H](O)C=C[C@H]3[C@H]1C5 [Morphine]
  Mean # of writhes per 5 minutes ± SEM: 1.93 ± 1.53
